The other results are listed elsewhere or left out.
Columns and labels:
Assay in all cases: log2 fold change, soluble protein after heating vs DMSO (PISA); higher = thermal stabilisation; K562 cells, 10 uM, 30 min; active = over 0.2 and 3.5 SD of the protein, either way, in both replicates (recomputed)
bafetinib = compound: Cc1ccc(NC(=O)c2ccc(CN3CC[C@H](N(C)C)C3)c(C(F)(F)F)c2)cc1Nc1nccc(-c2cncnc2)n1 [bafetinib]
Summary of the method: (§1)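 For each measurement, 10 μM compound was applied for 30 min to K562 cells at 2×10^6 cells/mL. Aliquots were heated for 3 min across 48°C-58°C, pooled, and extracted in PBS with 0.5% NP-40 at 4°C; the supernatant after 21,000xg for 90 min was soluble protein. This was quantified by TMTpro 16plex LC-MS/MS with channel sums equalised, and thermal stability was reported relative to control samples from duplicates, on a log2 fold-change scale.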

Sequences of proteins named here, by UniProt entry; tags and fusion partners are left off. A change or cut given only in a name is not applied to a line headed by its entry.
PIGBOS1, A0A0B4J2F0, UniProt A0A0B4J2F0, whole entry, looked up: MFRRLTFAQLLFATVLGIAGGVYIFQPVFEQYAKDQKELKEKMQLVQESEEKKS
UniProt Q9NWS0, whole entry, looked up: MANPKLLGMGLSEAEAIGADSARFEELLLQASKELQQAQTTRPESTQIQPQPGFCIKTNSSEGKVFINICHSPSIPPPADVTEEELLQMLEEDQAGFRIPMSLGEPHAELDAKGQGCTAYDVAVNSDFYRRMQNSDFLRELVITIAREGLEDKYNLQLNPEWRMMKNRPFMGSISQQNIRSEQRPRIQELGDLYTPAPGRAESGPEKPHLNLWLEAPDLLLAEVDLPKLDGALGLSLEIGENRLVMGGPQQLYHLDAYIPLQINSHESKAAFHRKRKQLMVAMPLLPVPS
UniProt O60925, whole entry, looked up: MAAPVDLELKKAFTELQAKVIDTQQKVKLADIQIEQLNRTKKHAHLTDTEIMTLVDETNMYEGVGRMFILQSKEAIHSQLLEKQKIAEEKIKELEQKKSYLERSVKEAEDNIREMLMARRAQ
UniProt Q8NHP8: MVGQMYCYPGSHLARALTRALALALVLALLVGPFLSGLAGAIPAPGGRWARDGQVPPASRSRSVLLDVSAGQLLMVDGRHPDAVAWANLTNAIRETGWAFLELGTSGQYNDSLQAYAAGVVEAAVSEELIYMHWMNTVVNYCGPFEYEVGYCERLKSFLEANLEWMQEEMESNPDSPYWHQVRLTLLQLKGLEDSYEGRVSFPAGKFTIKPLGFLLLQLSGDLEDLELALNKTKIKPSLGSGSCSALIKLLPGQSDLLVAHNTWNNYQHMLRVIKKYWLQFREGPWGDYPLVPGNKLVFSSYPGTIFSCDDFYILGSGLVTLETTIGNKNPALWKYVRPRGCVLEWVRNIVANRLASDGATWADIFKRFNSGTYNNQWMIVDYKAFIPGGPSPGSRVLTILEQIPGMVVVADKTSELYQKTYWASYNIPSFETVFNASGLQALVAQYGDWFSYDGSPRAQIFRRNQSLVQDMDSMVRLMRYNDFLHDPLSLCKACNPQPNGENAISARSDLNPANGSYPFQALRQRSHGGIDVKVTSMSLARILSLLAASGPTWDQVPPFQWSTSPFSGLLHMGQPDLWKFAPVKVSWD
UniProt P46020: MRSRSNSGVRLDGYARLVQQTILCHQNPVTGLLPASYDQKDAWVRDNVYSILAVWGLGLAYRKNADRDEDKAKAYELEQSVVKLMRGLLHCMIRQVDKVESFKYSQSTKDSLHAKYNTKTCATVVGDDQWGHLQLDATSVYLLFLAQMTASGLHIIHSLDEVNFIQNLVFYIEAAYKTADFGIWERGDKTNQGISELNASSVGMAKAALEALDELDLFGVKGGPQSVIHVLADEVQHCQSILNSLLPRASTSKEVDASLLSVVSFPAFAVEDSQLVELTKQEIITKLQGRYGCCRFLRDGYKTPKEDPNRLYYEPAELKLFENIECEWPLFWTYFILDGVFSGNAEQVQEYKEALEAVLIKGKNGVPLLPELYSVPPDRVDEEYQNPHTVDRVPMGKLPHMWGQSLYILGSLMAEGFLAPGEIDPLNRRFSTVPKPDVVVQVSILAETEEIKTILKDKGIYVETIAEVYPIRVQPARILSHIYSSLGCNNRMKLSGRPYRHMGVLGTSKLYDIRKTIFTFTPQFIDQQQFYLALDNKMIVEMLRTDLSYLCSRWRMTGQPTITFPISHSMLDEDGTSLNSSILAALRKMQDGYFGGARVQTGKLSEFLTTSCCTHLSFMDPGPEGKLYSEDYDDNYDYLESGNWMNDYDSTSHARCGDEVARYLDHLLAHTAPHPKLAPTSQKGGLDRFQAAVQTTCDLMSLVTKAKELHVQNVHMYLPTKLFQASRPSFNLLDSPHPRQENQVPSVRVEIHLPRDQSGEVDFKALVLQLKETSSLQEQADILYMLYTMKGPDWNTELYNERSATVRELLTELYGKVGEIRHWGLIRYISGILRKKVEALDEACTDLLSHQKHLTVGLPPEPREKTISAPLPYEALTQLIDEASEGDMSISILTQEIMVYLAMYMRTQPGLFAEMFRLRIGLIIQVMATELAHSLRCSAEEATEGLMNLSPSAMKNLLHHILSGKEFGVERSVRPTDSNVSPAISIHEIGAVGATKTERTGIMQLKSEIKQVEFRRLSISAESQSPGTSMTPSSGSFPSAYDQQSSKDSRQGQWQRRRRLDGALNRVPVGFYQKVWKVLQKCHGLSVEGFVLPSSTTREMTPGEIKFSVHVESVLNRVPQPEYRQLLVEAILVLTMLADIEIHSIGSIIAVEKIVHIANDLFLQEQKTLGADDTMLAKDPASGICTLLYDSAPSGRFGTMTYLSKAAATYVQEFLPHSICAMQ
UniProt Q96G03: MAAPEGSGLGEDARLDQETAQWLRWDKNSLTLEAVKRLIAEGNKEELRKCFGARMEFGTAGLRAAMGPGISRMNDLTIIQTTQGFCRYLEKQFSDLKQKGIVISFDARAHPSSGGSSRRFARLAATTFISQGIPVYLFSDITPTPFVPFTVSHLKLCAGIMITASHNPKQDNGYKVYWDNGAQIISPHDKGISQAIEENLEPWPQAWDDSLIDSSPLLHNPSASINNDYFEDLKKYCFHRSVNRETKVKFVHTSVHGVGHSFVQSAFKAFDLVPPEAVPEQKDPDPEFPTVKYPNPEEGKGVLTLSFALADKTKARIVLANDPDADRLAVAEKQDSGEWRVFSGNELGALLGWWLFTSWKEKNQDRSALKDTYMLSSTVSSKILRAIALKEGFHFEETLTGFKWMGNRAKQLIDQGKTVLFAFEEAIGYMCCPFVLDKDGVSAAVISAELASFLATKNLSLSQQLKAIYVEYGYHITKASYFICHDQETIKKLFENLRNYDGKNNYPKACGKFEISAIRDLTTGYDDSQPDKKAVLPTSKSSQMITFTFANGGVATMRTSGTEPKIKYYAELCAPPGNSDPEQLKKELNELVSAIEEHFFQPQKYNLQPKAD
UniProt P15735: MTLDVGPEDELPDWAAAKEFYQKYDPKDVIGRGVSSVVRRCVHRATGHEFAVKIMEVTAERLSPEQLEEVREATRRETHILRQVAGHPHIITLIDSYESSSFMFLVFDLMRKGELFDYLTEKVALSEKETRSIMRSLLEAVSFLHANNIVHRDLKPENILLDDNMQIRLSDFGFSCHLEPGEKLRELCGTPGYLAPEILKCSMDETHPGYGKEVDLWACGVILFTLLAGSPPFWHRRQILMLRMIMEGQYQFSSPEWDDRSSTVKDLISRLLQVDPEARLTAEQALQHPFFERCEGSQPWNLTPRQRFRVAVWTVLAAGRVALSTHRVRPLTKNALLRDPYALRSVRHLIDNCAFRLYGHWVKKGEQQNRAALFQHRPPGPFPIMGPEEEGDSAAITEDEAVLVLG
UniProt Q92576, whole entry, looked up: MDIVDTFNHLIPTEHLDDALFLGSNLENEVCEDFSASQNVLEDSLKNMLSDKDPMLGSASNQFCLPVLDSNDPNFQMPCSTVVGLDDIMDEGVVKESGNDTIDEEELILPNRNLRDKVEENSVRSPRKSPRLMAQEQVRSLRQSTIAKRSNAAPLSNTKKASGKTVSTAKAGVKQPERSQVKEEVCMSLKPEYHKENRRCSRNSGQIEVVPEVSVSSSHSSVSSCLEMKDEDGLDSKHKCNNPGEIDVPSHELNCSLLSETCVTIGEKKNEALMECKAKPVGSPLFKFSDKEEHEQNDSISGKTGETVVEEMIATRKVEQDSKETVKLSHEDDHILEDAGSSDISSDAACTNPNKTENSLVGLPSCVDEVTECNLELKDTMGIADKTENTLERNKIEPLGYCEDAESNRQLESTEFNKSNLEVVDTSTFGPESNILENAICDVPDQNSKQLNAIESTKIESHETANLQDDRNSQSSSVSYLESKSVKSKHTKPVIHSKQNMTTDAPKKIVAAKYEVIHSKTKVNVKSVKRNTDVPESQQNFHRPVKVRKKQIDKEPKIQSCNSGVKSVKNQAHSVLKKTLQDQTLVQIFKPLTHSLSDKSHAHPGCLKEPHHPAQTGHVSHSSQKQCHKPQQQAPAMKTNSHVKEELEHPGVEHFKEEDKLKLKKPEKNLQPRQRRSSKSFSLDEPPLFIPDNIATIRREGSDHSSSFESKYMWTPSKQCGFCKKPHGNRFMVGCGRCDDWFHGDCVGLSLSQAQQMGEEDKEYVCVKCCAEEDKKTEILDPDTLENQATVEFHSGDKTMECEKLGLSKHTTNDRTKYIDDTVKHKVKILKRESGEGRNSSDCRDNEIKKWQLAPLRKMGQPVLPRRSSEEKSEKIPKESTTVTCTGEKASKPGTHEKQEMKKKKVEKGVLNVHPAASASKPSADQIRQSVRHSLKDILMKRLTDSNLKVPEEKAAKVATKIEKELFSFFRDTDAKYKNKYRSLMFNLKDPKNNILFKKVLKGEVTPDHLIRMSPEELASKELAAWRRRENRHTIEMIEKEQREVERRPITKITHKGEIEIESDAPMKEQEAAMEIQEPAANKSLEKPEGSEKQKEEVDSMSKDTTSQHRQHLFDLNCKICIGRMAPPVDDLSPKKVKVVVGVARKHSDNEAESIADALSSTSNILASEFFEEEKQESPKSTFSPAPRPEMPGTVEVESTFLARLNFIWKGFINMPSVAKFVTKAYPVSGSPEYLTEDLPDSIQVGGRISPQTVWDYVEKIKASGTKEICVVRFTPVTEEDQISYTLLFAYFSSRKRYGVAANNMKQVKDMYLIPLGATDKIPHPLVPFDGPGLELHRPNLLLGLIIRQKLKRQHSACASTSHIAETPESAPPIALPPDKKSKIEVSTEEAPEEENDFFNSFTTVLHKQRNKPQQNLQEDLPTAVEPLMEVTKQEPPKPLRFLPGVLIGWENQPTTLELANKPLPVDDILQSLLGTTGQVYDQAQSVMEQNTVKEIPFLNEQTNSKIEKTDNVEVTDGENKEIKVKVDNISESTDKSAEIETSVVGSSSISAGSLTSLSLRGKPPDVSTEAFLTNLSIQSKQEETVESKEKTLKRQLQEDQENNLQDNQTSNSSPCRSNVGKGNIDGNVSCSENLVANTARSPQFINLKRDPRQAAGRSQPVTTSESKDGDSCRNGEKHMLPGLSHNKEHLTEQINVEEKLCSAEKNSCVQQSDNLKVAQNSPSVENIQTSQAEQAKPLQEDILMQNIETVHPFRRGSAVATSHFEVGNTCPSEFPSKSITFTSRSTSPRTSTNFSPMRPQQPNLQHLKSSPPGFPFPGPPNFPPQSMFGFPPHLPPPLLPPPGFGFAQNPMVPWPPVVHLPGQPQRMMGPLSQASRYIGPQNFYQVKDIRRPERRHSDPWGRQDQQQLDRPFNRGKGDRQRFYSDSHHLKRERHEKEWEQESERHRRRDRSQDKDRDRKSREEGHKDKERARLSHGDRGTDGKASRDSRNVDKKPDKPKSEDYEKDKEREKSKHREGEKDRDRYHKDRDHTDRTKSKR
UniProt P46019: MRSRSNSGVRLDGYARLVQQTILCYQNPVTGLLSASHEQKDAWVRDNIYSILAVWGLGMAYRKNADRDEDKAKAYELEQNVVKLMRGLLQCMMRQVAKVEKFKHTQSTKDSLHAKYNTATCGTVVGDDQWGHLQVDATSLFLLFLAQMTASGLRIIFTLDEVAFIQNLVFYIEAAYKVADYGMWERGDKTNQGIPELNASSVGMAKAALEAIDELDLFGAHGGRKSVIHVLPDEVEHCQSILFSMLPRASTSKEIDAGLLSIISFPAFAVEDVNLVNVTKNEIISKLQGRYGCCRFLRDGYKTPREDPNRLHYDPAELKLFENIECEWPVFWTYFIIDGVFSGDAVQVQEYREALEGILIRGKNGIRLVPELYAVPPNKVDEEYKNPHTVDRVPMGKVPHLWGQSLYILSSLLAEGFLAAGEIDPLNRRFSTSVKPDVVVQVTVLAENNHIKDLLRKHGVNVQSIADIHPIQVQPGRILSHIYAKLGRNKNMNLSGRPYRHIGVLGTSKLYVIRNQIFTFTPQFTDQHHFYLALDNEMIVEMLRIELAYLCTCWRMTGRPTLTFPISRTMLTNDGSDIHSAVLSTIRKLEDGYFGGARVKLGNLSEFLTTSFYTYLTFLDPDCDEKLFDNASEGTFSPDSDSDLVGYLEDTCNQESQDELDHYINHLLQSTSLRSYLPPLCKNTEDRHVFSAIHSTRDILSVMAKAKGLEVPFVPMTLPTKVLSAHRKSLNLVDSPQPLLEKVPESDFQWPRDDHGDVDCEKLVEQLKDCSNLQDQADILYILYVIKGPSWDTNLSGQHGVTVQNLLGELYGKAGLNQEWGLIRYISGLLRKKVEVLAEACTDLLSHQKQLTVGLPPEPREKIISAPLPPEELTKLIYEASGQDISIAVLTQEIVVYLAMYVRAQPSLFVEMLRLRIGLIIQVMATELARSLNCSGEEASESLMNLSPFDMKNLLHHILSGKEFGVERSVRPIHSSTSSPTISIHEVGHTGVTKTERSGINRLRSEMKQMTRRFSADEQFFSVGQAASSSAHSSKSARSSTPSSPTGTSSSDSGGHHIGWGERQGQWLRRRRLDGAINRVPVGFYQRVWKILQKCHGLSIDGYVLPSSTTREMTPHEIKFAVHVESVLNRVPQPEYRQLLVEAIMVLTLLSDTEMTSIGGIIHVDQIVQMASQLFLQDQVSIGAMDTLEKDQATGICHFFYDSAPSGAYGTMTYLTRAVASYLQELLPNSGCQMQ

[1] = compound: Cc1cccc(CC(=O)N2CCc3c2ccc(-c2cn(C)c4ncnc(N)c24)c3F)n1
Summary of the method: as §1

nilotinib = compound: Cc1cn(-c2cc(NC(=O)c3ccc(C)c(Nc4nccc(-c5cccnc5)n4)c3)cc(C(F)(F)F)c2)cn1 [nilotinib]
Summary of the method: as §1

[2] = compound: Cc1nc(Nc2n[nH]c3c2CN(C(=O)N[C@H](CN(C)C)c2ccccc2)C3(C)C)c2sccc2n1
Summary of the method: as §1

dasatinib = compound: Cc1nc(Nc2ncc(C(=O)Nc3c(C)cccc3Cl)s2)cc(N2CCN(CCO)CC2)n1 [dasatinib]
Summary of the method: as §1

[3] = compound: Cc1ncc(-c2ccnc(Nc3ccc(S(C)(=O)=O)cc3)n2)n1C(C)C
Summary of the method: as §1

[4] = compound: Cn1cc(-c2ccc3c(c2)CCN3C(=O)Cc2cccc(C(F)(F)F)c2)c2c(N)ncnc21
Summary of the method: as §1

[5] = compound: Cn1cc(-c2ccc3nnc(C(F)(F)c4ccc5ncccc5c4)n3n2)cn1
Summary of the method: as §1

tipifarnib = compound: Cn1cncc1[C@@](N)(c1ccc(Cl)cc1)c1ccc2c(c1)c(-c1cccc(Cl)c1)cc(=O)n2C [tipifarnib]
Summary of the method: as §1

mubritinib = compound: FC(F)(F)c1ccc(/C=C/c2nc(COc3ccc(CCCCn4ccnn4)cc3)co2)cc1 [mubritinib]
Summary of the method: as §1

Measured: log2 fold change

PIP4K2C (UniProt Q8TBX8)
active: [3] 1.25
inactive: bafetinib 0.663 | [1] -0.112 | nilotinib 0.354 | [2] 0.053 | dasatinib -0.042 | [4] 0.144 | [5] 0.568 | tipifarnib -0.07 | mubritinib -0.084

PGRMC1 (UniProt O00264)
inactive: bafetinib -0.068 | [1] -0.018 | nilotinib 0.012 | [2] -0.023 | dasatinib 0.023 | [3] -0.029 | [4] -0.016 | [5] 0.05 | tipifarnib -0.023 | mubritinib 0.035

PIP4K2A (UniProt P48426)
active: [3] 0.588
inactive: bafetinib 0.283 | [1] 0.103 | nilotinib 0.077 | [2] 0.065 | dasatinib 0.048 | [4] 0.037 | [5] 0.181 | tipifarnib -0.081 | mubritinib -0.06

PIGBOS1, A0A0B4J2F0
inactive: bafetinib -0.105 | [1] -0.055 | nilotinib 0.003 | [2] -0.029 | dasatinib 0.107 | [3] -0.017 | [4] 0.073 | [5] 0.066 | tipifarnib 0.072 | mubritinib 0.027

PFAS (UniProt O15067)
inactive: bafetinib 0.033 | [1] 0.311 | [2] -0.113 | dasatinib -0.003 | [3] 0.059 | [5] 0.06 | tipifarnib 0.018
active: nilotinib -0.359 | [4] 0.341 | mubritinib 0.52

PHPT1 (UniProt Q9NRX4)
inactive: bafetinib -0.04 | [1] -0.053 | nilotinib 0.065 | [2] -0.02 | dasatinib 0.009 | [3] -0.016 | [4] 0.024 | [5] 0.038 | tipifarnib -0.013 | mubritinib -0.025

PI4KB (UniProt Q9UBF8)
inactive: bafetinib 0.002 | [1] 0.015 | nilotinib -0.108 | [2] -0.08 | dasatinib -0.158 | [3] 0.042 | [4] 0.063 | [5] 0.058 | tipifarnib -0.008 | mubritinib 0.059

PIH1D1 (UniProt Q9NWS0)
inactive: bafetinib 0.076 | [1] 0.042 | nilotinib 0.034 | [2] -0.018 | dasatinib 0.028 | [3] 0.02 | [4] -0.014 | [5] -0.029 | tipifarnib -0.088 | mubritinib 0.018

PHACTR2 isoform 4 (UniProt O75167)
inactive: bafetinib -0.065 | [1] 0.015 | nilotinib 0.31 | [2] 0.042 | dasatinib 0.178 | [3] -0.119 | [4] -0.033 | [5] 0.068 | tipifarnib 0.049 | mubritinib 0.163

Looked up one by one from the list above, two records:
PI4KB (UniProt Q9UBF8)
inactive: bafetinib 0.002 | [1] 0.015 | nilotinib -0.108 | [2] -0.08 | dasatinib -0.158 | [3] 0.042 | [4] 0.063 | [5] 0.058 | tipifarnib -0.008 | mubritinib 0.059

PFAS (UniProt O15067)
inactive: bafetinib 0.033 | [1] 0.311 | [2] -0.113 | dasatinib -0.003 | [3] 0.059 | [5] 0.06 | tipifarnib 0.018
active: nilotinib -0.359 | [4] 0.341 | mubritinib 0.52

Next records

PFDN1 (UniProt O60925)
inactive: bafetinib 0.038 | [1] -0.041 | nilotinib 0.012 | [2] 0.026 | dasatinib 0.076 | [3] -0.023 | [4] 0.153 | [5] 0.328 | tipifarnib -0.061 | mubritinib 0.039

PFDN4 (UniProt Q9NQP4)
inactive: bafetinib -0.016 | [1] 0.044 | nilotinib 0.006 | [2] 0.005 | dasatinib 0.024 | [3] 0.002 | [4] -0.043 | [5] 0.034 | tipifarnib 0.078 | mubritinib 0.035

PIGG (UniProt Q5H8A4)
inactive: bafetinib -0.034 | [1] 0.047 | nilotinib 0.083 | [2] 0.007 | dasatinib -0.013 | [3] -0.022 | [4] 0.004 | [5] -0.044 | tipifarnib 0.012 | mubritinib 0.038

PLA2G15 (UniProt Q8NCC3)
inactive: bafetinib -0.175 | [1] 0.05 | nilotinib -0.001 | [2] -0.025 | dasatinib -0.036 | [3] -0.028 | [4] 0.002 | [5] 0.09 | tipifarnib 0.084 | mubritinib -0.05

PIEZO1 (UniProt Q92508)
inactive: bafetinib -0.016 | [1] -0.115 | nilotinib -0.009 | [2] 0.115 | dasatinib 0.013 | [3] 0.023 | [4] 0.016 | [5] -0.024 | tipifarnib 0.05 | mubritinib 0.024

PLBD2 (UniProt Q8NHP8)
inactive: bafetinib -0.173 | [1] -0.056 | nilotinib -0.011 | [2] 0.024 | dasatinib -0.013 | [3] -0.052 | [4] 0.017 | [5] 0.044 | tipifarnib 0.093 | mubritinib 0.056

PEX19 (UniProt P40855)
inactive: bafetinib -0.048 | [1] -0.038 | nilotinib 0.042 | [2] -0.004 | dasatinib 0.041 | [3] 0.005 | [4] -0.003 | [5] -0.022 | tipifarnib 0.005 | mubritinib 0.019

PHKA1 (UniProt P46020)
inactive: bafetinib 0.023 | [1] -0.004 | nilotinib -0.233 | [2] -0.021 | dasatinib -0.303 | [3] 0.023 | [4] 0.027 | [5] -0.092 | tipifarnib 0.083 | mubritinib -0.04

PGM2 (UniProt Q96G03)
inactive: bafetinib -0.022 | [1] 0.018 | nilotinib -0.017 | [2] 0.003 | dasatinib 0.075 | [3] -0.014 | [4] 0.017 | [5] -0.005 | tipifarnib 0.022 | mubritinib 0.016

PKN1 isoform 2 (UniProt Q16512)
active: [2] -0.705
inactive: bafetinib -0.006 | [1] 0.038 | nilotinib -0.044 | dasatinib -0.154 | [3] -0.019 | [4] -0.02 | [5] -0.008 | tipifarnib -0.046 | mubritinib 0.098

PHKG2 (UniProt P15735)
active: [2] 0.321
inactive: bafetinib -0.047 | [1] 0.044 | nilotinib -0.177 | dasatinib -0.306 | [3] 0.011 | [4] -0.024 | [5] -0.017 | tipifarnib -0.046 | mubritinib -0.127

PIGT (UniProt Q969N2)
inactive: bafetinib -0.042 | [1] 0 | nilotinib -0.029 | [2] 0.046 | dasatinib -0.031 | [3] -0.028 | [4] -0.011 | [5] 0.003 | tipifarnib -0.029 | mubritinib -0.037

PHF3 (UniProt Q92576)
inactive: bafetinib 0.107 | [1] -0.077 | nilotinib 0.023 | [2] 0.201 | dasatinib 0.085 | [3] 0.063 | [4] -0.142 | [5] -0.065 | tipifarnib 0.148 | mubritinib -0.039

PGGT1B (UniProt P53609)
inactive: bafetinib -0.069 | [1] -0.024 | nilotinib -0.007 | [2] -0.059 | dasatinib 0.075 | [3] 0.009 | [4] -0.027 | [5] 0.004 | tipifarnib 0.134 | mubritinib 0.062

PHB2 (UniProt Q99623)
inactive: bafetinib -0.02 | [1] -0.006 | nilotinib -0.017 | [2] 0.025 | dasatinib 0.015 | [3] -0.021 | [4] 0.002 | [5] 0.019 | tipifarnib 0.051 | mubritinib 0.016

PFKM isoform 3 (UniProt P08237)
inactive: bafetinib -0.04 | [1] -0.039 | nilotinib 0.006 | [2] 0.006 | dasatinib 0.007 | [3] -0.01 | [4] 0.013 | [5] -0.005 | tipifarnib -0.004 | mubritinib 0.061

PEX7 (UniProt O00628)
inactive: bafetinib 0.101 | [1] -0.025 | nilotinib -0.047 | [2] 0.048 | dasatinib -0.025 | [3] -0.007 | [4] 0.05 | [5] 0.04 | tipifarnib 0.034 | mubritinib 0.085

PHKA2 (UniProt P46019)
inactive: bafetinib -0.107 | [1] -0.037 | nilotinib -0.239 | [2] 0.119 | dasatinib -0.07 | [3] -0.157 | [4] 0.033 | [5] -0.051 | tipifarnib -0.055 | mubritinib 0.082

PGD (UniProt P52209)
inactive: bafetinib -0.031 | [1] 0.016 | nilotinib -0.005 | [2] -0.031 | dasatinib -0.044 | [3] -0.021 | [4] 0.051 | [5] 0.005 | tipifarnib -0.047 | mubritinib 0.037

PHB (UniProt P35232)
inactive: bafetinib -0.041 | [1] -0.012 | nilotinib -0.039 | [2] -0.004 | dasatinib 0.075 | [3] -0.036 | [4] 0.032 | [5] 0.05 | tipifarnib 0.034 | mubritinib 0.016

PIP4P1 isoform 2 (UniProt Q86T03)
inactive: bafetinib -0.044 | [1] 0.102 | nilotinib 0.031 | [2] -0.004 | dasatinib 0.051 | [3] -0.016 | [4] -0.158 | [5] 0.01 | tipifarnib 0.112 | mubritinib -0.037

Source: the supplement of paper PMC10849652
